{"source": "PubChem BioAssay AID652243 (Drosophila RNAi Screening Center, 2013)", "screen": "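Knock-downs that decrease or increase androgen receptor reporter signal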 (primary screen)", "cell system": "Drosophila S2R+ cells", "knock-down reagent": "long dsRNA against Drosophila genes", "timing": "72 h (48 h, then 24 h hormone)", "conditions": "synthetic androgen R1881 at 10 nM for 24 h", "measured": "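Per-well raw luminescence of the androgen-driven firefly reporter and of the Renilla control, two replicates each, without normalisation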", "direction": "firefly reporter light: higher = more light from androgen-responsive reporter; Renilla control light: higher = more constitutive control signal (cell number, transfection)", "call rule": "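Hit when the log firefly-to-Renilla ratio dropped or increased by a fixed fold versus the mean of GFP or LacZ controls across duplicate plates; lowering cut given as 1.5 and as 3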", "calls": "active = hit: reporter lowered or raised; inactive = no hit", "note": "The deposit covers about 24,000 reagents; below is an unselected part of those that have a named target and a result. Of all reagents, 246 (1%) were called active. 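Plates not normalised; calls are printed but the firefly/Renilla ratio behind them is not deposited; fold cut for lowering reported inconsistently.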 The raw values are shown without normalisation. Reagents against one gene are numbered here. Reagent sequences are not shown. Not stated in the record: the amount of reagent."}
The opening 3 entries, to show the layout:
{"target gene":"CG2887","reagent no.":1,"firefly reporter light, replicate 1":4.22e5,"firefly reporter light, replicate 2":3.94e5,"Renilla control light, replicate 1":3.90e6,"Renilla control light, replicate 2":3.27e6,"Outcome":"inactive"}
{"target gene":"CG2887","reagent no.":2,"firefly reporter light, replicate 1":9.27e5,"firefly reporter light, replicate 2":7.39e5,"Renilla control light, replicate 1":7.83e5,"Renilla control light, replicate 2":8.38e5,"Outcome":"inactive"}
{"target gene":"PIG-B (Phosphatidylinositol glycan anchor biosynthesis class B)","reagent no.":1,"firefly reporter light, replicate 1":5.52e5,"firefly reporter light, replicate 2":5.42e5,"Renilla control light, replicate 1":3.41e6,"Renilla control light, replicate 2":3.07e6,"Outcome":"inactive"}

The listing, repeating the preview:
{"target gene":"CG2887","reagent no.":1,"firefly reporter light, replicate 1":4.22e5,"firefly reporter light, replicate 2":3.94e5,"Renilla control light, replicate 1":3.90e6,"Renilla control light, replicate 2":3.27e6,"Outcome":"inactive"}
{"target gene":"CG2887","reagent no.":2,"firefly reporter light, replicate 1":9.27e5,"firefly reporter light, replicate 2":7.39e5,"Renilla control light, replicate 1":7.83e5,"Renilla control light, replicate 2":8.38e5,"Outcome":"inactive"}
{"target gene":"PIG-B (Phosphatidylinositol glycan anchor biosynthesis class B)","reagent no.":1,"firefly reporter light, replicate 1":5.52e5,"firefly reporter light, replicate 2":5.42e5,"Renilla control light, replicate 1":3.41e6,"Renilla control light, replicate 2":3.07e6,"Outcome":"inactive"}
{"target gene":"PIG-B (Phosphatidylinositol glycan anchor biosynthesis class B)","reagent no.":2,"firefly reporter light, replicate 1":8.96e5,"firefly reporter light, replicate 2":7.37e5,"Renilla control light, replicate 1":1.10e6,"Renilla control light, replicate 2":9.77e5,"Outcome":"inactive"}
{"target gene":"mop (myopic)","reagent no.":1,"firefly reporter light, replicate 1":1.09e6,"firefly reporter light, replicate 2":8.73e5,"Renilla control light, replicate 1":1.79e6,"Renilla control light, replicate 2":2.06e6,"Outcome":"inactive"}
{"target gene":"mop (myopic)","reagent no.":2,"firefly reporter light, replicate 1":2.85e5,"firefly reporter light, replicate 2":5.46e5,"Renilla control light, replicate 1":5.42e5,"Renilla control light, replicate 2":1.10e6,"Outcome":"inactive"}
{"target gene":"mop (myopic)","reagent no.":3,"Outcome":"inactive"}
{"target gene":"Cdc42 (Cell division cycle 42)","reagent no.":1,"firefly reporter light, replicate 1":1.16e5,"firefly reporter light, replicate 2":74072,"Renilla control light, replicate 1":4.15e5,"Renilla control light, replicate 2":3.45e5,"Outcome":"inactive"}
{"target gene":"Cdc42 (Cell division cycle 42)","reagent no.":2,"firefly reporter light, replicate 1":8.68e5,"firefly reporter light, replicate 2":9.86e5,"Renilla control light, replicate 1":7.18e5,"Renilla control light, replicate 2":6.73e5,"Outcome":"inactive"}
{"target gene":"px (plexus)","reagent no.":1,"firefly reporter light, replicate 1":6.80e5,"firefly reporter light, replicate 2":7.53e5,"Renilla control light, replicate 1":1.89e6,"Renilla control light, replicate 2":1.79e6,"Outcome":"inactive"}
{"target gene":"px (plexus)","reagent no.":2,"firefly reporter light, replicate 1":4.16e5,"firefly reporter light, replicate 2":4.51e5,"Renilla control light, replicate 1":9.32e5,"Renilla control light, replicate 2":9.65e5,"Outcome":"inactive"}
{"target gene":"CG30075","reagent no.":1,"firefly reporter light, replicate 1":1.10e5,"firefly reporter light, replicate 2":1.11e5,"Renilla control light, replicate 1":3.12e5,"Renilla control light, replicate 2":3.57e5,"Outcome":"inactive"}
{"target gene":"hoe1 (hoepel1)","reagent no.":1,"firefly reporter light, replicate 1":6.25e5,"firefly reporter light, replicate 2":1.24e6,"Renilla control light, replicate 1":8.38e5,"Renilla control light, replicate 2":1.23e6,"Outcome":"inactive"}
{"target gene":"hoe1 (hoepel1)","reagent no.":2,"firefly reporter light, replicate 1":1.79e5,"firefly reporter light, replicate 2":1.44e5,"Renilla control light, replicate 1":2.42e6,"Renilla control light, replicate 2":1.32e6,"Outcome":"inactive"}
{"target gene":"hoe1 (hoepel1)","reagent no.":3,"firefly reporter light, replicate 1":1.65e5,"firefly reporter light, replicate 2":1.10e5,"Renilla control light, replicate 1":1.62e6,"Renilla control light, replicate 2":8.06e5,"Outcome":"inactive"}
{"target gene":"CG14230","reagent no.":1,"firefly reporter light, replicate 1":93940,"firefly reporter light, replicate 2":1.10e5,"Renilla control light, replicate 1":7.30e5,"Renilla control light, replicate 2":8.76e5,"Outcome":"inactive"}
{"target gene":"Grik","reagent no.":1,"firefly reporter light, replicate 1":64346,"firefly reporter light, replicate 2":87702,"Renilla control light, replicate 1":6.29e5,"Renilla control light, replicate 2":7.96e5,"Outcome":"inactive"}
{"target gene":"Grik","reagent no.":2,"firefly reporter light, replicate 1":3.94e5,"firefly reporter light, replicate 2":3.84e5,"Renilla control light, replicate 1":2.60e6,"Renilla control light, replicate 2":2.44e6,"Outcome":"inactive"}
{"target gene":"Grik","reagent no.":3,"firefly reporter light, replicate 1":3.06e5,"firefly reporter light, replicate 2":2.49e5,"Renilla control light, replicate 1":6.40e5,"Renilla control light, replicate 2":6.52e5,"Outcome":"inactive"}
{"target gene":"CG15141","reagent no.":1,"firefly reporter light, replicate 1":5.52e5,"firefly reporter light, replicate 2":8.46e5,"Renilla control light, replicate 1":1.83e6,"Renilla control light, replicate 2":2.19e6,"Outcome":"inactive"}
{"target gene":"CG15141","reagent no.":2,"firefly reporter light, replicate 1":1.66e5,"firefly reporter light, replicate 2":1.75e5,"Renilla control light, replicate 1":2.35e6,"Renilla control light, replicate 2":3.14e6,"Outcome":"inactive"}
{"target gene":"CG15141","reagent no.":3,"firefly reporter light, replicate 1":9.14e5,"firefly reporter light, replicate 2":8.43e5,"Renilla control light, replicate 1":2.23e6,"Renilla control light, replicate 2":1.76e6,"Outcome":"inactive"}
{"target gene":"CG43740","reagent no.":1,"firefly reporter light, replicate 1":8.47e5,"firefly reporter light, replicate 2":8.78e5,"Renilla control light, replicate 1":7.78e5,"Renilla control light, replicate 2":9.14e5,"Outcome":"inactive"}
{"target gene":"CG43740","reagent no.":2,"firefly reporter light, replicate 1":8.35e5,"firefly reporter light, replicate 2":9.29e5,"Renilla control light, replicate 1":1.70e6,"Renilla control light, replicate 2":1.65e6,"Outcome":"inactive"}
{"target gene":"sev (sevenless)","reagent no.":1,"firefly reporter light, replicate 1":4.77e5,"firefly reporter light, replicate 2":3.52e5,"Renilla control light, replicate 1":3.23e6,"Renilla control light, replicate 2":3.77e6,"Outcome":"inactive"}
{"target gene":"sev (sevenless)","reagent no.":2,"Outcome":"inactive"}
{"target gene":"sev (sevenless)","reagent no.":3,"Outcome":"inactive"}
{"target gene":"sev (sevenless)","reagent no.":4,"firefly reporter light, replicate 1":2.47e5,"firefly reporter light, replicate 2":2.44e5,"Renilla control light, replicate 1":1.02e6,"Renilla control light, replicate 2":1.21e6,"Outcome":"active"}
